Measurements as given in US9572820B2, “Methods of treating autophagy-associated disorders and related pharmaceutical compositions, diagnostics, screening techniques and kits” (priority 2011, dated 2017).
At least one compound was matched to its structure with a doubt left.

System: RAW264.7 macrophages
Assay: LC3-II levels in cells knocked down for Rab34 (nutritional bypass)
Format: cell-based, murine
Conditions: Rab34 siRNA knockdown, compound added to medium

## COC(=O)C(C)=O [methyl-pyruvate]
  effect of Rab34 knockdown on autophagy measured by LC3-II: reversed
